Here are results for 28 molecules from PubChem BioAssay AID651660 (Broad Institute, 2012).

Protein sequences, listed by entry. Tags and fused reporters are not part of them. Lines headed by an entry give the natural chain unless they say otherwise; changes in a name come on top.
UniProt P43351: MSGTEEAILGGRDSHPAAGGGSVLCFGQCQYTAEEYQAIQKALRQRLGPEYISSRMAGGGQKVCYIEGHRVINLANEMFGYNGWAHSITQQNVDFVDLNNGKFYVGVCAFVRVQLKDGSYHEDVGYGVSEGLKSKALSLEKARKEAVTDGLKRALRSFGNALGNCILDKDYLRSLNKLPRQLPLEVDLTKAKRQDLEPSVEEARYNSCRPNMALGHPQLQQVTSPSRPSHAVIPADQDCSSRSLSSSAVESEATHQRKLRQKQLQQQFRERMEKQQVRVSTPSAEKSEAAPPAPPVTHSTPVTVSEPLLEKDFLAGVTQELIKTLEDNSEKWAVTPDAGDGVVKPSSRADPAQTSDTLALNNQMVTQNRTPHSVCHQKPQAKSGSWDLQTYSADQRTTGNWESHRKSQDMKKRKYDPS

“And” between values parts separate entries of the source, which are not always exact repeats. Equal entries are not always repeated. Screen size: about 1,900 compounds; about 15 (0.8%) were called active.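 How the source made its calls: active means every replicate shows at least 50% inhibition; inconclusive means mean inhibition at least 50% but some replicate below; inactive means the rest.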 Some of the results follow.

This assay addresses DNA repair protein RAD52 homolog (Homo sapiens) (UniProt P43351). Description: inhibition of RAD52-mediated strand annealing – biochemical, FRET, single point, primary screen (AID 651660).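 Further: 0% = median of neutral control wells and 100% = median of positive control wells.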 The note with it: Recombinant RAD52 ssDNA annealing, FRET fluorescence, 30 min; at 18.7 µM; stronger effect = higher value.
Consider `NCC(O)c1ccc(O)cc1` (stereo not drawn), for which the inhibition (as a rule, the change of the read-out against control, counted positive when it falls) was inactive: -1.23%.

Consider `c1ccc(Cn2ccnc2)cc1`, for which the inhibition was inactive: 0.152%.

For the molecule `O=C1NCCN2CCCC12` (stereo not drawn), the inhibition is inactive: -1.15%.

For the molecule `CN1C[C@H](CNC(=O)OCc2ccccc2)C[C@@H]2c3cccc4c3c(cn4C)C[C@H]21`, the inhibition was inactive: -58.1%.

With `OCc1cnc[nH]1`, the inhibition was inactive: -0.84%.

On to `Clc1ccc(COC(Cn2ccnc2)c2ccc(Cl)cc2Cl)cc1` (stereo not drawn), for which the inhibition is inactive: 31.4%.

Turning to `C[C@H]1CCCC(=O)CCCCCc2cc(O)cc(O)c2C(=O)O1`, the inhibition was inactive: 5.47%.

Take `c1ccc2c(c1)OCC(C1=NCCN1)O2` (stereo not drawn): the inhibition was inactive: -11.4%.

`CC[N+]1(C)CCCC(OC(=O)C(O)(c2ccccc2)c2ccccc2)C1` (stereo not drawn): the inhibition was inactive: 5.8%.

`CCN(CC)C(=O)N[C@H]1C[C@@H]2c3cccc4[nH]cc(c34)C[C@H]2N(C)C1`: the inhibition is inactive: -268%.

As for `CC12CN3CC(c4ccccc4)(CN(C1)C31CCCCC1)C2=O`, the inhibition was inactive: 0.38%.

Regarding `CCn1c(O)c(C(=O)CC2NCCc3ccccc32)c(=O)n(CC)c1=S` (stereo not drawn), the inhibition is inactive: -169%.

As for `C[N+]1(C)CCc2cc3c(cc2[C@H]1[C@@H]1OC(=O)c2c1ccc1c2OCO1)OCO3`, the inhibition was inactive: 1.41% and inactive: -10.8%.

`C=CC1CN2CCC1CC2[C@@H](OC(=O)c1ccc(OC)cc1)c1ccnc2ccccc12` (stereo partly drawn): the inhibition was inactive: 9.32%.

Turning to `NCCc1c[nH]c2ccc(F)cc12`, the inhibition is inactive: 0.119%.

With `Cc1ccc(/C=C2/C(=O)NC(=O)N(C)C2=O)cc1`, the inhibition was inactive: -8.8%.

As for `CCOC(=O)c1cncn1C(C)c1ccccc1` (stereo not drawn), the inhibition was inactive: -7.55%.

Regarding `c1cnc2c(c1)ccc1ncccc12`, the inhibition is inactive: -3.46%.

Take `O=c1c2ccccc2nc(/C=C/c2ccc3c(c2)OCO3)n1-c1ccccc1`: the inhibition was inactive: -39.6%.

With `O=C(CCCN1CCC2(CC1)C(=O)NCN2c1ccccc1)c1ccc(F)cc1`, the inhibition was inactive: -2.24%.

On to `C[C@]12CCC(=O)C=C1CC[C@@H]1[C@@H]2CC[C@]2(C)C(=O)CC[C@@H]12`, for which the inhibition is inactive: -2.86%.

As for `OC(c1ccccc1)(c1ccccc1)C1CCNCC1`, the inhibition is inactive: -3.89%.

As for `COc1ccc(-c2nc3ccccc3c(=O)o2)cc1`, the inhibition is inactive: -14.9%.

Take `CCCC(C)(COC(N)=O)COC(=O)NC(C)C` (stereo not drawn): the inhibition is inactive: 1.67%.

For the molecule `CN1[C@@H]2CC[C@H]1CC(OC(=O)C1C=Nc3ccccc31)C2` (stereo partly drawn), the inhibition was inactive: 4.33%.

Turning to `O=C1CSC2N1CCNC21CCCCC1` (stereo not drawn), the inhibition is inactive: 0.516%.

For the molecule `Clc1ccc(COC(Cn2ccnc2)c2ccc(Cl)cc2Cl)c(Cl)c1` (stereo not drawn), the inhibition is inactive: 47.6%.

In the case of `COc1cccc(Oc2c(C)oc3cc(OC(=O)N(C)C)ccc3c2=O)c1`, the inhibition was inactive: 1.29%.
